Measured values published in publication PMC12040169 (PLOS Biology, 2025).
The other results are listed elsewhere or left out.

Test system: T1, CTL2-GFP (C. trachomatis L2/434/Bu, GFP-expressing)
T1 construct: L2/434/Bu, GFP-expressing
Parameters: species or system HeLa; Intracellular C. trachomatis growth in HeLa cells, bulk GFP fluorescence relative to DMSO
Conditions: bulk GFP, single well; 28.5 h, 10 µM; inhibitor

| Structure (SMILES) | % of control remaining |
| --- | --- |
| CC(=O)Nc1cccc(CN(CCCO)c2ccccc2)c1 [CBK304833] | 140.554% |
| COc1ccc(S(=O)(=O)N2CCN(Cc3ccc4c(c3)OCO4)CC2)c2ccccc12 [CBK074521] | 96.4808% |
| Oc1cccc(Sc2nc3ccccc3nc2C(F)(F)F)c1 [CBK093780] | 88.0488% |
| O=C(O)CC(Cc1ccc(Cl)cc1)C(=O)Nc1ccc([N+](=O)[O-])cc1 (stereo not shown) [CBK261973] | 117.76% |
| CN(CCc1ccncc1)C(=O)CCc1cc(F)ccc1F [CBK304876] | 135.013% |
| Cc1c(CC(=O)O)c(=O)oc2cc(OCc3ccc(F)cc3)ccc12 [CBK286674] | 124.246% |
| O=C1CN(C(=O)NCC2COc3ccccc3O2)CCN1 (stereo not shown) [CBK155847] | 110.261% |
| O=C(O)Cc1nc(-c2ccccc2)c(-c2ccccc2)s1 [CBK159470] | 109.768% |
| Cn1cc(CNCC2CCCN2c2cccnn2)c(-c2cccnc2)n1 (stereo not shown) [CBK305326] | 160.267% |
| COc1cc(C(=O)Nc2ccc3oc(-c4cccnc4)nc3c2)ccc1OCc1ccc(Cl)cc1 [CBK264037] | 130.479% |
| Cc1ccc(C(F)(F)F)cc1NCc1csc(C2CCCO2)n1 (stereo not shown) [CBK305424] | 103.328% |
| CCN(CC)C(=O)Cn1nc(C)n2c(cc3oc(C)cc32)c1=O [CBK283609] | 123.049% |
| CC(NCc1ccncc1)=C1C(=O)c2ccccc2C1=O [CBK262890] | 104.973% |
| Cc1cc(N2CCN(C(=O)c3ccsc3)CC2)nc(C(C)C)n1 [CBK304053] | 64.1612% |
| CC1(C)CC(CCNC(=O)CCC(=O)O)(c2ccccc2)CCO1 (stereo not shown) [CBK218198] | 138.024% |
| COCC1(O)CCN(Cc2sccc2Cl)CC1 [CBK304252] | 128.858% |
| c1ccc2oc(-c3cncc(NCCCN4CCOCC4)n3)cc2c1 [CBK066045] | 96.8405% |
| O=C(O)c1[nH]c2ccccc2c1C(c1cccs1)c1c(C(=O)O)[nH]c2ccccc12 [CBK267786] | 98.3906% |
| O=c1cnnc(Nc2ccc(Nc3ccccc3)cc2)[nH]1 [CBK287921] | 119.568% |
| CC1=CC(C)C(=S)NC(C)=C1 (stereo not shown) [CBK022735] | 120.043% |
| CCc1noc(CN2CCC(c3c[nH]c4ccc(OC)cc34)CC2)n1 [CBK305960] | 148.018% |
| Cc1nn(C)cc1CN1CCC(C(=O)NCCc2ccccc2)C1 (stereo not shown) [CBK281968] | 106.02% |
| CC(C)c1nc(C2CCCN(c3ncc(C#N)cc3Cl)C2)no1 (stereo not shown) [CBK304128] | 91.0249% |
| CC(NC(=O)CCc1cc2n(n1)CCNC2)c1cn2ccsc2n1 (stereo not shown) [CBK306551] | 103.94% |
| CCn1cc(C2CN(S(=O)(=O)Cc3ccccc3)CCO2)cn1 (stereo not shown) [CBK304129] | 77.1896% |
| O=C(Cn1c(-c2cccs2)cc2cccnc21)NCc1cccnc1 [CBK282457] | 119.988% |

| Structure (SMILES) | % of control remaining |
| --- | --- |
| CCCNc1nccnc1-c1ccc(C(=O)N2CCN(C)CC2)cc1 [CBK036892] | 115.02% |
| Cc1ccc(OCC(=O)N2N=C(CC(C)C)CC2(O)C(F)(F)F)cc1C (stereo not shown) [CBK293935] | 124.916% |
| O=C(c1ncoc1-c1ccc(F)cc1)N1CCOCC1 [CBK282362] | 139.194% |
| CS(=O)(=O)N1CCC(Nc2nc(-c3cccs3)nc3ccccc23)CC1 [CBK305987] | 103.401% |
| CC1=CCCN(C(=O)C23CCOCC2CN(c2ncccn2)C3)C1 (stereo not shown) [CBK304743] | 102.181% |
| COc1ccc(CC(=O)N2CCCC2c2nnc3ccccn23)cc1 (stereo not shown) [CBK304719] | 122.44% |
| Cc1ccccc1C(=O)NC(=S)NCCN1CCOCC1 [CBK288475] | 98.9826% |
| CCCn1cc(CN2CC3C[C@@H](O)CN3C[C@@H]2C)c2ccccc21 (stereo partly shown) [CBK285466] | 109.884% |
| CC1=NN(c2ccc(S(N)(=O)=O)cc2)C(=O)/C1=C\c1ccc(-c2ccc(Cl)c([N+](=O)[O-])c2)o1 [CBK263612] | 111.712% |
| C[C@@H](Cn1nc2c(cc1=O)CCCC2)NC(=O)Cc1cccc(F)c1 [CBK284527] | 146.182% |
| CC(=O)c1[nH]c(C)c(C(=O)N(C)Cc2cc(-c3ccncc3)no2)c1C [CBK306681] | 112.359% |
| CC(=O)N1CCC(C(=O)Nc2cnc(-c3ccc(F)cc3)c(-c3ccco3)n2)CC1 [CBK037038] | 163.256% |
| CCOC(=O)c1csc(COc2ccccc2Cl)n1 [CBK057782] | 108.784% |
| COc1ccc(CCCC(=O)Nc2cc(N3CCNCC3)nc(SC)n2)cc1OC [CBK050261T] | 116.801% |
| O=C(O)CCSc1nccc(C(F)(F)F)n1 [CBK107864] | 116.797% |
| CCNc1nc(-c2cccc(/C=C/C(=O)O)c2)cn2ccnc12 [CBK066373] | 147.051% |
| CN1CCN(C(=O)c2nc(SCc3ccccc3)ncc2Cl)CC1 [CBK269003] | 109.616% |
| O=C(Nc1ccccc1-n1ccnc1)c1ncoc1-c1ccc(F)cc1 [CBK282417] | 122.895% |
| NC(=O)CN1CCCN(c2nccc(OCC3COc4ccccc4O3)n2)CC1 (stereo not shown) [CBK084041] | 148.294% |
| CCCn1nc(C)c(-c2cncn2CC(C)N2CCCCC2)c1C (stereo not shown) [CBK281802] | 126.464% |
| CCCCOc1ccccc1C1CC(=O)Nc2c(-c3ccccc3F)csc21 (stereo not shown) [CBK294439] | 78.863% |
| OCCN(CC#CCC(O)(c1ccccc1)c1ccccc1)CCO [CBK263623] | 132.23% |
| OCc1cccc(-c2nccnc2NCc2ccc(F)cc2)c1 [CBK037670] | 87.2844% |
| Cc1nc2cc(OCc3ccc(Cn4ccn(C(=O)CCC5CCCC5)c4=O)cc3)ccc2s1 [CBK106641] | 123.741% |
| Cc1cccc(C(=O)O)c1NC(=O)Cc1cccc2ccccc12 [CBK268361] | 85.5992% |
| Cc1nc(-c2ccc(S(=O)(=O)NCC3CC3)s2)cs1 [CBK085873] | 120.776% |

Taken from above.
% of control remaining, Cn1cc(CNCC2CCCN2c2cccnn2)c(-c2cccnc2)n1 (stereo not shown) [CBK305326] reads 160.267%
% of control remaining, Cc1cccc(C(=O)O)c1NC(=O)Cc1cccc2ccccc12 [CBK268361] reads 85.5992%
% of control remaining, CN1CCN(C(=O)c2nc(SCc3ccccc3)ncc2Cl)CC1 [CBK269003] reads 109.616%
